Test results published in patent publication US20060035838A1 (The Board of Trustees of the Leland Stanford Junior …, priority 2002, published 2006).

What was measured:
[1] = Fmoc solid-phase peptide synthesis; settings: whole synthesis, scale 25 μmol
[2] = general procedure: Fmoc solid-phase peptide synthesis; settings: whole synthesis, scale 25 μmol

Substance: Pro-Gln-Pro-Aci-Leu-Pro-Tyr
- isolated yield [1]: 14%
- isolated mass [2]: 4 OD275 (3.4 μmol
